Measurements from “University of Dundee, Small-Polar-MMV Screening Library” (2021), ChEMBL document CHEMBL3988442.

Sequences of proteins named here, by UniProt entry; tags and fusion partners are left off.
UniProt I6X8D2, whole entry: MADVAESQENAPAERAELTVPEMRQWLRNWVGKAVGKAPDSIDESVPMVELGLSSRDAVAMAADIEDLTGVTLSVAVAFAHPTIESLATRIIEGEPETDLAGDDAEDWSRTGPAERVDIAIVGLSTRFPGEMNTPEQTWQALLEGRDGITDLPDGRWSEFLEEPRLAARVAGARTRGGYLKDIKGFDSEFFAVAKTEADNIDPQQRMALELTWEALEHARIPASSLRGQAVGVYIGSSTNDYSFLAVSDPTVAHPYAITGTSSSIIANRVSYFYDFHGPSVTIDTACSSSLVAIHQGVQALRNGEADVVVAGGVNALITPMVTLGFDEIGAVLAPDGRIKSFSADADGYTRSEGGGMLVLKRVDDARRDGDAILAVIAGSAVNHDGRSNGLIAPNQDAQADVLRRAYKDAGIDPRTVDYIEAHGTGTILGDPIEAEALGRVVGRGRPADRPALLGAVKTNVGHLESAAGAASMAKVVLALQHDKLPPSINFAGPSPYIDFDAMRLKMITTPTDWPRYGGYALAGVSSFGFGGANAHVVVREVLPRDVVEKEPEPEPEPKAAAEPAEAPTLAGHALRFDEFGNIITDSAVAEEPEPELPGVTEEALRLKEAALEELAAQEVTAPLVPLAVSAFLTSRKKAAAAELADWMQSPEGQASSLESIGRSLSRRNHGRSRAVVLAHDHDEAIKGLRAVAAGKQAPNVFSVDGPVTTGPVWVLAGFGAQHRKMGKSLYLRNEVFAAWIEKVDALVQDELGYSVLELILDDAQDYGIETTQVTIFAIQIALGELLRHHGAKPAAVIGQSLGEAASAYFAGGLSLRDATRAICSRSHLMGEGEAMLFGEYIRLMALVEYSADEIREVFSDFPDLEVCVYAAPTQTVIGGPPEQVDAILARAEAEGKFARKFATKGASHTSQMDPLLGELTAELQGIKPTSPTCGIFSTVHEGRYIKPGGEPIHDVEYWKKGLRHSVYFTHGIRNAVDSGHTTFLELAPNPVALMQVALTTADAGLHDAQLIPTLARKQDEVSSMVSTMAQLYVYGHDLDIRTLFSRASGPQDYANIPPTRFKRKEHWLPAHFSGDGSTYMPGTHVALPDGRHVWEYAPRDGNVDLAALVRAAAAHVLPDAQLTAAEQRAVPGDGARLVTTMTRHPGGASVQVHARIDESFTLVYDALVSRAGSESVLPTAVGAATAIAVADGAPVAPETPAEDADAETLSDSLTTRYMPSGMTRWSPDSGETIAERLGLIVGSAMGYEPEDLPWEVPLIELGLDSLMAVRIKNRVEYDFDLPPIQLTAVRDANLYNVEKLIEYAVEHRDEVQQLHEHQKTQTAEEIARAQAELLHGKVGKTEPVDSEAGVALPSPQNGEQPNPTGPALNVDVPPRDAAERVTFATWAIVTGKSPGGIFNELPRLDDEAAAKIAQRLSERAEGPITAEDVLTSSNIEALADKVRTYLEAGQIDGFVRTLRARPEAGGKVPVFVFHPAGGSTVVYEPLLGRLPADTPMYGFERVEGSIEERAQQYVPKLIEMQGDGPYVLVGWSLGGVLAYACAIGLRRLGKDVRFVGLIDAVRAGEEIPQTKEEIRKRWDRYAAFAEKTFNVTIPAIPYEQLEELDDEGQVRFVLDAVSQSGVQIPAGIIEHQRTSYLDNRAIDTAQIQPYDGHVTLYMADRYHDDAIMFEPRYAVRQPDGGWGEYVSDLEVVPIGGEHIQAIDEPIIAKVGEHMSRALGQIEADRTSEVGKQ
UniProt P9WNZ1, whole entry: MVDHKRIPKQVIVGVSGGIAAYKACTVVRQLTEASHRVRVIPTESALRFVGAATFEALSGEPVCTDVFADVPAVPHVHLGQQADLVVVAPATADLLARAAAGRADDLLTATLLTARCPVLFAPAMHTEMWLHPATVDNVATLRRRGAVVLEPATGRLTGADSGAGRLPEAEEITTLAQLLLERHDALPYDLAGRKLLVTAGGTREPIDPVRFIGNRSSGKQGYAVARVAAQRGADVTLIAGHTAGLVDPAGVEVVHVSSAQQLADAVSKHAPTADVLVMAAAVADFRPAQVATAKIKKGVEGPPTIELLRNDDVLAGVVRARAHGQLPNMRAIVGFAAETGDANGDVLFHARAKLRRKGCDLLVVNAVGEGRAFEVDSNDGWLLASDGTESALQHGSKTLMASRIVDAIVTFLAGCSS
UniProt P9WPC5, whole entry: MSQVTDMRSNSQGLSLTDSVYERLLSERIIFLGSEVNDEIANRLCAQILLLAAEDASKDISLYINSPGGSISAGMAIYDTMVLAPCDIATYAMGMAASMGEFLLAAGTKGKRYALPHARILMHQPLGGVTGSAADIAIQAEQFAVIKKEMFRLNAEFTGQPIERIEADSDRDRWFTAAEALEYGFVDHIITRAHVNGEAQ
UniProt P9WPC3, whole entry partner: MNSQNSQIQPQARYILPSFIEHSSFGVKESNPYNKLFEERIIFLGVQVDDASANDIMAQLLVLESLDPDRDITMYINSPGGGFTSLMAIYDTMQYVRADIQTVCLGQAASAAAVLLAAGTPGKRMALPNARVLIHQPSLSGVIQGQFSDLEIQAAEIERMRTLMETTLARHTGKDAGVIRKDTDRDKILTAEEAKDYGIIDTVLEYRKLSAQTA
UniProt P9WFT3, whole entry: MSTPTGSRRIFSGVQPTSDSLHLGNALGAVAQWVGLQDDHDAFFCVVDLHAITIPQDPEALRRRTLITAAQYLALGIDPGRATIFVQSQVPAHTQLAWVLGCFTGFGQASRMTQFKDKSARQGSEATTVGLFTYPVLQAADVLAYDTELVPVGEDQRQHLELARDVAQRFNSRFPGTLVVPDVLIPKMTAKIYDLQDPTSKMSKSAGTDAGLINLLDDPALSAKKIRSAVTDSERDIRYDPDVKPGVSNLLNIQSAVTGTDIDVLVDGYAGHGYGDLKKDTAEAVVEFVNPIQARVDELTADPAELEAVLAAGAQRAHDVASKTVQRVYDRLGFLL

Pks13 thioesterase: 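Enzyme assay of the thioesterase domain of polyketide synthase 13; the read-out is not stated. Target: Polyketide synthase Pks13, Mycobacterium tuberculosis (UniProt I6X8D2). Concentration: 30 µM. The record gives no direction; the compounds picked for IC50 retests had high values, so higher reads as stronger inhibition. About 67,000 compounds were tested under these conditions; 0.46% (about 300) showed 50% or more at least once.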
Toxoplasma: 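Assay of Toxoplasma gondii numbers, read through their beta-galactosidase reporter with a colour substrate. Concentration: 10 µM. Higher reads as fewer parasites (inferred from which compounds were picked for retests). Of about 67,000 compounds tested this way, about 260 (0.38%) reached 50% or more in at least one test.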
CoaBC: 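Enzyme assay of CoaBC with a phosphate dye (Biomol Green) read at 650 nm. Target: Coenzyme A biosynthesis protein CoaBC, Mycobacterium tuberculosis (UniProt P9WNZ1). Concentration: 30 µM. Direction is inferred from only a few compounds that gave an IC50; most scored high, so higher reads as stronger inhibition. Most strong results did not repeat in a second test. Of about 67,000 compounds tested this way, about 40 (0.06%) reached 50% or more in at least one test.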
ClpP1P2: 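ClpP1P2, Mycobacterium tuberculosis (UniProt P9WPC5 and UniProt P9WPC3). Protease assay of ClpP1P2, read by the AMC dye that it sets free. Concentration: 50 µM. Direction is inferred from only a few compounds that gave an IC50; most scored high, so higher reads as stronger inhibition. Most other retested compounds had strongly negative values. Of about 69,000 compounds tested this way, about 10 (0.015%) reached 50% or more in at least one test.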
Leishmania in macrophages: 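Cell assay of Leishmania donovani living inside macrophages; the read-out is not stated. Compounds at 30 µM. The record gives no direction; compounds that gave an IC50 in retests scored well above the rest, so higher reads as stronger inhibition. Size under these conditions: about 69,000 compounds, about 1,000 of them at 50% or above in at least one test.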
MtTrpRS: 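Enzyme assay of tryptophanyl-tRNA synthetase; the read-out is not stated. Target: Tryptophan-tRNA ligase, Mycobacterium tuberculosis (UniProt P9WFT3). Compounds at 10 µM. Direction is not recorded; retested compounds ran higher, which suggests that high means inhibition. Size under these conditions: about 65,000 compounds, about 64 of them at 50% or above in at least one test.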

The filed quantity is “Percent Effect” (%). The record does not define 0% and 100%; most values in the screen are far below 50% and negative numbers occur (in some assays of this library far below -100). The compounds are a random part of those screened. Two or more numbers in one place are separate tests of the same structure; such repeats can differ widely.

- O=S1(=O)c2cccnc2OC(COc2ccccc2)CN1CC1CC1 (stereo not given) : Pks13 thioesterase: 17.91%; Toxoplasma: 8.678%; CoaBC: -2.331%; ClpP1P2: -2.617%; Leishmania in macrophages: -14.05%
- O=C(NCc1ccc(F)cc1)NCC(O)(c1ccco1)C1CC1 (stereo not given) : Pks13 thioesterase: -30.91%; Toxoplasma: 11.84%; CoaBC: 7.822%; ClpP1P2: 10.96%; Leishmania in macrophages: -0.06917% & -1.122%; MtTrpRS: 16.19%
- CN1CCN(CCC(F)(F)C(F)F)CC12CCNC(=O)CC2 (stereo not given) : Pks13 thioesterase: 2.143%; Toxoplasma: -14.29%; CoaBC: 1.6%; ClpP1P2: -2.826%; Leishmania in macrophages: -29.49%; MtTrpRS: 8.318%
- CCN(CC)C(=O)CCNC(=O)c1c[nH]c2ccc(OC)cc12 : Pks13 thioesterase: -21.06%; Toxoplasma: -8.718%; CoaBC: 7.46%; ClpP1P2: 7.621%; Leishmania in macrophages: 18.66%; MtTrpRS: 1.211%
- c1cnn(CCNCc2csc(-c3ccsc3)n2)c1 : Pks13 thioesterase: -11.26%; Toxoplasma: -18.42%; CoaBC: -6.995%; ClpP1P2: 3.862%; Leishmania in macrophages: 15.12%; MtTrpRS: -16.85%
- Cc1nnc2n1CCN(c1nc3ccccc3o1)C2 : Pks13 thioesterase: -24.89%; Toxoplasma: -6.095%; CoaBC: -4.819%; ClpP1P2: 3.464%; Leishmania in macrophages: 13.17%; MtTrpRS: 0.09099%
- O=S(=O)(C1CC1)N1C[C@H]2CCC[C@@]2(COc2ccccn2)C1 : Pks13 thioesterase: 6.105%; CoaBC: 3.365%; ClpP1P2: 5.796%; MtTrpRS: 4.824%
- CCOc1ccc(S(=O)(=O)C(C)C(=O)Nc2cc(C)no2)cc1 (stereo not given) : Pks13 thioesterase: -32.29%; Toxoplasma: 1.775%; CoaBC: -5.357%; ClpP1P2: -1.23%; Leishmania in macrophages: 24.94%; MtTrpRS: -4.025%
- CS(=O)(=O)CCNC(=O)N(Cc1ccoc1)C1CCCCC1 : Pks13 thioesterase: -28.43%; Toxoplasma: 7.729%; CoaBC: 3.566%; ClpP1P2: -2.054%; Leishmania in macrophages: 5.751%; MtTrpRS: -1.874%
- c1ccc(NC[C@@H]2CCC[C@@H]3CN(Cc4csnn4)C[C@@H]32)nc1 : Pks13 thioesterase: -32.32%; CoaBC: -31.31%; ClpP1P2: -2.23%; MtTrpRS: -0.7647%
- O=C(CC1CN(Cc2ccccc2)CCO1)NCCN1CCOCC1 (stereo not given) : Pks13 thioesterase: -20.97%; Toxoplasma: -2.213%; CoaBC: -2.538%; ClpP1P2: -12.84%; Leishmania in macrophages: 22.78%; MtTrpRS: -8.457%
- Cc1noc(NCc2ccc(F)cc2)n1 : Pks13 thioesterase: -4.382%; Toxoplasma: -15.58%; CoaBC: 0.7453%; ClpP1P2: -11.38%; Leishmania in macrophages: 47.75%; MtTrpRS: 2.147%
- CN(C)C(=O)Cc1ccccc1NCc1nc(Cc2ccccc2)no1 : Pks13 thioesterase: -21.9%; Toxoplasma: -0.2002%; CoaBC: 2.857%; ClpP1P2: -2.627%; Leishmania in macrophages: 3.911%; MtTrpRS: -1.63%

Once more, the final 2:

With Cc1noc(NCc2ccc(F)cc2)n1 the screen gave Pks13 thioesterase: -4.382%; Toxoplasma: -15.58%; CoaBC: 0.7453%; ClpP1P2: -11.38%; Leishmania in macrophages: 47.75%; MtTrpRS: 2.147%.
With CN(C)C(=O)Cc1ccccc1NCc1nc(Cc2ccccc2)no1 the screen gave Pks13 thioesterase: -21.9%; Toxoplasma: -0.2002%; CoaBC: 2.857%; ClpP1P2: -2.627%; Leishmania in macrophages: 3.911%; MtTrpRS: -1.63%.